From PubChem BioAssay AID493014 (National Center for Advancing Translational Sciences (NCATS), 2011)
This is one part of the list. These are further read-outs of the screen, such as a control signal, another cell line or another target. No call is given for them. Compounds called inactive in the main read-out are mostly missing here. Potencies come from curve fits of mixed quality, noted in brackets.

Test: qHTS Assay to Find Inhibitors of Chronic Active B-Cell Receptor Signaling
Settings: ABC-DLBCL IkBa-CBG/CBR reporter, luminescence ratio (green luciferase fused to IkBa over red control in TMD8 lymphoma cells), 4 h
Procedure, shortened: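 TMD8 ABC-DLBCL cells carrying doxycycline-inducible green luciferase fused to IkappaBalpha plus unfused red luciferase were exposed to compounds (up to 46 uM) for 4 hrs at 37C. Activity came from the overlap-corrected green/red luminescence ratio.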

[1] = measured here: CBR red luminescence, cell number
[2] = measured here: IkBa-CBG green luminescence

CCCCc1ccc(NC(=O)CSCc2cc(=O)[nH][nH]2)cc1
AC50 [1]: 29.1 µM [rising, single point]

CCOc1ncccc1C(=O)N=C1SCCN1C(=O)c1cccnc1OCC
AC50 [1]: 25.1 µM [falling, single point]

C(=NC12CN3CN(CN(C3)C1)C2)c1ccc2c(c1)OCO2
AC50 [1]: 0.092 µM [falling, full curve, poor fit]

O=C(Nc1ccc(N2CCOCC2)c(C(=O)O)c1)c1ccc(Br)cc1
AC50 [1]: 35.5 µM [falling, single point]

CCOc1ncccc1C(=O)Nc1cccc(S(=O)(=O)N2CCOCC2)c1
AC50 [1]: 10.3 µM [falling, partial curve, poor fit]

C/C(=N\NC(=O)CSCc1ccccc1Cl)c1cc(O)ccc1O
AC50 [1]: 22.4 µM [falling, single point]

COc1ccc(NC(=S)N(CCCN2CCCC2)Cc2cccn2Cc2ccc(Cl)cc2)cc1Cl
AC50 [1]: 17.8 µM [falling, single point]

O=C(NC1CCCC1)c1ccc2c(c1)N(Cc1ccc(F)cc1)CCS2
AC50 [1]: 15.8 µM [falling, partial curve, poor fit]

CC12CCC(=O)C=C1CCC1C2C(=O)CC2(C)C1CCC2(O)C(=O)CO (configuration not stated)
AC50 [1]: 35.5 µM [rising, single point]

COc1ccc(C(=O)NC(=S)NC2CCCCC2)cc1
AC50 [1]: 2.82 µM [rising, partial curve, poor fit]

COCCn1nnnc1C(c1ccc(OC)c(OC)c1)N1CCN(c2nc3ccccc3s2)CC1 (configuration not stated)
AC50 [1]: 2.06 µM [falling, partial curve, poor fit]

N#CCCS(=O)(=O)c1nnnn1-c1ccccc1
AC50 [1]: 10 µM [falling, partial curve]
AC50 [2]: 14.1 µM [rising, single point]

Cc1cc2oc(=O)cc(C)c2cc1NC(=O)CCl
AC50 [1]: 12.6 µM [falling, partial curve, poor fit]

Cc1cc2cc(CNC(=O)C3CC3)ccc2n1C
AC50 [1]: 7.08 µM [rising, full curve]

COc1ccc(CCn2c(NN)nc3c2c(=O)[nH]c(=O)n3C)cc1
AC50 [1]: 31.6 µM [rising, single point]

Cc1ccc(NC(=O)C2CC(=O)N(C(C)c3ccccc3)C2)cc1 (configuration not stated)
AC50 [1]: 23.1 µM [rising, single point]

C[C@@H]1CN([C@H](C)CO)C(=O)c2cc(NC(=O)Nc3ccc(F)cc3)ccc2O[C@H]1CN(C)C(=O)Nc1ccc(C(F)(F)F)cc1
AC50 [1]: 11.6 µM [rising, partial curve]

CCOC(=O)c1c(C)nc2sc(C(N)=O)c(N)c2c1-c1ccc(OC)cc1
AC50 [1]: 29.1 µM [falling, single point]

CN1CCN(CC(O)COC(c2ccc(Cl)cc2)c2ccc(Cl)cc2)CC1 (configuration not stated)
AC50 [1]: 15.8 µM [falling, single point]

Cc1cccc(OCC(=O)O/N=C(\N)c2ccccn2)c1C
AC50 [1]: 12.6 µM [falling, single point]

CCOc1ccc(S(=O)(=O)N(CC)CC(=O)N2CCCC2)cc1C
AC50 [1]: 35.5 µM [rising, single point]

O=C(Nc1nccs1)c1ccc(-c2ccccc2Cl)o1
AC50 [1]: 20.6 µM [falling, single point]

CCOC(=O)Cc1ccc2sc(-c3ccccc3)nc2c1
AC50 [1]: 16.4 µM [falling, single point]

COc1ccc(Oc2ccc(C(F)(F)F)cc2NC(=O)c2ccc(F)cc2)cc1
AC50 [1]: 5.62 µM [rising, full curve, poor fit]

Cc1ccc(/C=N/NC(=O)c2ccc3nc[nH]c3c2)s1
AC50 [1]: 8.91 µM [falling, partial curve, poor fit]

Cc1cc(=O)c2cc(NC(=O)c3ccccc3Cl)ccc2[nH]1
AC50 [1]: 3.55 µM [falling, full curve]

O=C(COC(=O)CC(c1ccccc1)c1ccccc1)Nc1ccc(F)c(F)c1
AC50 [1]: 11.2 µM [falling, single point]

CC(=O)N1CC(C)Sc2ccc(S(=O)(=O)NCc3ccc(Cl)cc3)cc21 (configuration not stated)
AC50 [1]: 6.31 µM [falling, partial curve, poor fit]

CCC(=O)NNc1ncnc2c1cnn2-c1cccc(C)c1
AC50 [1]: 0.562 µM [falling, full curve, poor fit]

O=C(Nc1ccc(Br)cc1)c1ccc(N2C(=O)C3CC=CCC3C2=O)cc1 (configuration not stated)
AC50 [1]: 6.51 µM [falling, partial curve, poor fit]

COc1ccc(COC(=O)C2=C(C)NC(=O)NC2c2cc(OC)ccc2OC)cc1 (configuration not stated)
AC50 [2]: 12.6 µM [falling, partial curve, poor fit]

FC(F)(F)c1cnc(Oc2ccccc2-c2nnco2)c(Cl)c1
AC50 [1]: 11.6 µM [rising, single point]

O=C(NNC(=O)c1ccccc1O)c1ccco1
AC50 [1]: 7.94 µM [falling, partial curve]

O=C(Cn1cc[n+](CC(=O)c2ccc(Cl)cc2Cl)c1)c1ccc(Cl)cc1Cl
AC50 [1]: 35.5 µM [falling, single point]

O=C(CCC(=O)N(CC(=O)NC1CCCCC1)Cc1ccco1)Nc1nccs1
AC50 [1]: 35.5 µM [falling, partial curve, poor fit]

Cc1ccc(S(=O)(=O)c2c(N)n(Cc3ccco3)c3nc4ccccc4nc23)cc1C
AC50 [1]: 8.2 µM [falling, partial curve]

COc1ccccc1NC(=O)C(=O)Nc1ccccn1
AC50 [1]: 0.398 µM [falling, full curve]

Cc1ccc(NC(=O)CN2c3cccc4cccc(c34)S2(=O)=O)cc1
AC50 [1]: 18.4 µM [falling, partial curve, poor fit]

CC(C)c1ccc(NC(=O)[C@H](NC(=O)[C@@H]2Cc3ccccc3CN2)c2ccccc2)cc1
AC50 [1]: 3.55 µM [rising, single point]

Cn1c(-c2ccccc2)c(C=O)c2ccccc21
AC50 [1]: 6.31 µM [falling, single point]

O=C(CCc1nnc2ccc(NCc3ccco3)nn12)Nc1ccc(F)cc1
AC50 [1]: 35.5 µM [falling, single point]
